The source of these data is publication PMC4275244.

No constants are given. Whether binding was seen depends on the method and setting. Binding seen in cells or lysates may run through a third protein. A result given as binding can be weak or reduced; the word gives no strength.

The assay concerns the target T1, plakoglobin (human (endogenous in BxPC-3)) (UniProt P14923).
T1 sequence: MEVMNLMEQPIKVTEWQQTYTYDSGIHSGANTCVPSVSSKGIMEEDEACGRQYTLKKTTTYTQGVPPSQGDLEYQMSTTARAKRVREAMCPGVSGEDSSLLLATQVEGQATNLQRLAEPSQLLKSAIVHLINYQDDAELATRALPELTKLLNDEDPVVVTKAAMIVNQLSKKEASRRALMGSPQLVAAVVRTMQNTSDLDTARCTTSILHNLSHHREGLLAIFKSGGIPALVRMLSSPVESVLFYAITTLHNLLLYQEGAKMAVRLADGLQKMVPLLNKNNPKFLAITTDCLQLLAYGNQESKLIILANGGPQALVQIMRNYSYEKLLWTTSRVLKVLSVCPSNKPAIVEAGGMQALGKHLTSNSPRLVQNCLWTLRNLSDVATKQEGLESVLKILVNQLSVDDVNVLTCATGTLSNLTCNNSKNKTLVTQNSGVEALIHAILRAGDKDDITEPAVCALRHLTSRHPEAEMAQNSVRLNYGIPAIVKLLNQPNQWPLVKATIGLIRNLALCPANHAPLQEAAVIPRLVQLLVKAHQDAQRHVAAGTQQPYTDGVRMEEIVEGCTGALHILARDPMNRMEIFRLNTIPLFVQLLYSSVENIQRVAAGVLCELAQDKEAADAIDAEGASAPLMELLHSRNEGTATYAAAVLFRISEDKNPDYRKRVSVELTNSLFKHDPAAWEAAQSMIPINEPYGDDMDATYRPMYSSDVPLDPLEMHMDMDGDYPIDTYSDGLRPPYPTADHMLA
The assay can be described thus: co-IP; whole cell lysates (50 mM Tris pH 8.0, 150 mM NaCl, 1% NP40, 2 mM EDTA) of BxPC-3 wild type and β-catenin deficient clones #4, #31, #79, #93, #111; anti-plakoglobin antibody on Protein G Dynabeads, 400 µg protein, 4°C over night; normal rabbit IgG as negative control; blots for plakoglobin and E-cadherin.

In the case of “E-cadherin (human (endogenous in BxPC-3))”, the binding entry is given as “binds”.
